From PMC4466420
These are yes or no findings as the source states them, for the method shown. Some results given as binding are weak or reduced against the parent protein; the word gives no strength.

Chains of the proteins cited; added tags and fusions are not shown.
UniProt A0A0D1DWZ5: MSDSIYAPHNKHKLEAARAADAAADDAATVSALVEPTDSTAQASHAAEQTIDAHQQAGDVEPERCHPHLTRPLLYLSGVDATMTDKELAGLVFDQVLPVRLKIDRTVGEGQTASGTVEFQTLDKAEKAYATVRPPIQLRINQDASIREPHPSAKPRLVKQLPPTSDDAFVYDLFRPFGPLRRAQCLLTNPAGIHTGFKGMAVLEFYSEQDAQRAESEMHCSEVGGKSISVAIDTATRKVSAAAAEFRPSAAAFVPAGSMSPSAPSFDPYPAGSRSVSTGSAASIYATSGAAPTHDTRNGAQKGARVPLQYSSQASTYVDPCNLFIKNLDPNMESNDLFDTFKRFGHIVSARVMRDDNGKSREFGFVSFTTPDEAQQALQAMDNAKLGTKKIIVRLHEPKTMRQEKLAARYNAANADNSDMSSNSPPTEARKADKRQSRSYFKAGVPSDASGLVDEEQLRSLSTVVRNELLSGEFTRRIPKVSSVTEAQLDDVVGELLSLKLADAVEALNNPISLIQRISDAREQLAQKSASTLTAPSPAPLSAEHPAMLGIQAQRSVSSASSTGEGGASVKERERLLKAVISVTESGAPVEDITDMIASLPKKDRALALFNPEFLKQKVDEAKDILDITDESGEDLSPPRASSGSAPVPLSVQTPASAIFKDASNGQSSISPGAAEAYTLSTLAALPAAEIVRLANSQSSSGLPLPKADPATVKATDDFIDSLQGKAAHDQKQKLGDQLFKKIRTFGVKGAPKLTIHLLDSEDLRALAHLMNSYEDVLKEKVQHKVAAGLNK

Legend:
[1] = molecular target: Upa1-Gfp (Ustilago maydis); assay: two-hybrid; Matchmaker 3 (Clontech), S. cerevisiae AH109; Upa1-Gfp versions fused to the Gal4 DNA-binding domain, Rrm4 versions to the activation domain; growth on SD plates without leucine, tryptophan, histidine and adenine, 28°C, 3 days
[2] = molecular target: Upa1^ΔN1-Gfp (Ustilago maydis); assay: as above

Rrm4 (from UniProt A0A0D1DWZ5 1-792)
binding [1]: binds
binding [2]: binds
